# Measurements reported in the supplement of paper PMC3334620.
# The full ranking holds about 33,000 sequences; the median of “E-score (-0.5 to 0.5)” is about -0.0014, and the highest 2% start at about 0.25. Some of the results follow.
# Biological target: T1, Cad1 (UniProt P24813)
# T1 sequence: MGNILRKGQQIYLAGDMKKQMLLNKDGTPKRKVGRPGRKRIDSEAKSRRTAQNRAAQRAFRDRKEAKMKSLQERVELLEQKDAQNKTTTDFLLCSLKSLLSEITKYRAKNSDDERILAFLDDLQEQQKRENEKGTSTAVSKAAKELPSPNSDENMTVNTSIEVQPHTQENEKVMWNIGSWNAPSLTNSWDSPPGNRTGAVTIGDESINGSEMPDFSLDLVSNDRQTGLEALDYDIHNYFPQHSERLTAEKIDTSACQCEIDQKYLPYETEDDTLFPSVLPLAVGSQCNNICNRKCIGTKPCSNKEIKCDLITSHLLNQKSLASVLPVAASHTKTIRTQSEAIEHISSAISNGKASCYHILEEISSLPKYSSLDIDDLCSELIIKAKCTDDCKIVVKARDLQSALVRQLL
# Assay: PBM E-score (8-mer binding enrichment) (E-score (-0.5 to 0.5)); higher = stronger / more preferred TF binding
# Settings: protein concentration: 100 nM; construct: GST-full length
# Outline: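 Using PURExpress in vitro transcription/translation, GST-tagged yeast transcription factors were made in full-length or DNA-binding-domain form. These were applied at about 100-200 nM to double-stranded universal all-10-mer Agilent arrays, and bound protein was detected with fluorescent anti-GST. Scans were normalised with masliner before the Universal PBM Analysis Suite assigned E-scores to ungapped eight-base words pooled with their reverse complements.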
row,Sequence,PBM E-score
1,CCGCCTTC,-0.135
2,CCCGAAGG,-0.203
3,CGCTTCTA,0.0246
4,TGCTAGCA,0.263
5,GCACACTA,0.00763
6,ATGATGAC,0.0869
7,AATCAAAG,0.0509
8,ACCGTGGC,-0.177
9,AGTCTATA,0.0344
10,AATTAAAG,-0.0007
11,AACACATG,0.102
12,CTCAGCAA,0.106
13,CAGGGCTA,-0.182
14,AACGAAGT,-0.0578
15,GACGGCGA,-0.186
16,ACATTCCG,0.05
17,AAGCGAAA,-0.0755
18,CCCTTCTA,-0.29
19,ACTGGCGC,0.128
20,ACTCTGAT,-0.00513
21,GGCACAGA,-0.137
22,AGCCGCCT,0.0248
23,CGCGGACG,0.169
24,CAGCCTAG,-0.0818
25,AGGACCAG,-0.16

row,Sequence,PBM E-score
1,ATCACGAG,-0.162
2,AAGCAAAT,0.132
3,AGCGTAAG,0.0888
4,ACGCTTTG,-0.0649
5,GCTATCCC,-0.104
6,CTGGTAAA,0.0872
7,ATTGAACG,0.0446
8,ATCGTTGC,-0.00548
9,CCAGTAAG,-0.0339
10,GCGCAGCA,-0.301
11,GCTCCTAC,-0.0758
12,ATGACTAC,-0.181
13,CTAAGCGA,0.0774
14,ACTGCGAA,0.00767
15,AGGGTAGA,-0.156
16,GGTACGGA,0.022
17,CATGTCGC,-0.0661
18,AGCTAGGC,-0.13
19,ACGTCCCA,-0.248
20,GGACGGAA,-0.0512
21,AGCCCCCG,-0.454
22,ACAAGATA,0.0123
23,CGCCAACG,-0.0234
24,GCAGCGAC,-0.264
25,GGTTGCCA,0.026

row,Sequence,PBM E-score
1,CAATAGGC,0.0601
2,AGTGCTAT,-0.132
3,CAATGAGG,-0.258
4,GAAAGATC,-0.0475
5,GGGGGGAA,-0.346
6,CTGTATGC,-0.0435
7,GAGGGGCA,-0.364
8,GAGTAACC,0.0195
9,GGAAGGTA,-0.137
10,CACGACGG,0.176
11,CCGAAAGG,-0.0838
12,CGATAGCC,0.00324
13,AGGTGAAT,-0.0273
14,ACATCCAG,0.0415
15,CCACCTCG,-0.249
16,ACTGCCTA,-0.002
17,AAAAGTAA,0.265
18,CTCGTATA,-0.176
19,TGTATGAA,0.0103
20,GGGATTCA,-0.0483
21,AACTTCAT,0.152
22,CCTGTTCG,-0.059
23,GTAAACGA,0.0439
24,GTGACTGA,0.157
25,AACCGGCC,-0.0621

# Another view of part of the listing above.
row	Sequence	PBM E-score
11	CCGAAAGG	-0.0838
12	CGATAGCC	0.00324

# The list continues:

row,Sequence,PBM E-score
1,GCGAGAAA,0.127
2,TAACGTCA,0.124
3,CTGGGGCA,-0.247
4,AGAACCCC,-0.0841
5,AGAGAAAC,0.0172
6,CCAATGCA,-0.0491
7,AAGGCGCA,0.0457
8,CCGCCTGA,-0.139
9,ATGAGCAT,0.0806
10,AATAAGCC,0.00433
11,ACTGGTCT,-0.17
12,CGCAGTTA,0.102
13,ATGAGAAA,0.0905
14,TAAGACGA,0.0852
15,AGCGATGA,-0.00781
16,CAGGTTTA,-0.0171
17,CCGCTGAC,0.164
18,AGTGAAAA,0.138
19,ACCTAGGT,-0.129
20,CCCGCACG,-0.0326
21,ACTAGACT,-0.219
22,AGTGTCAA,0.0488
23,CAGATATC,0.0973
24,ACAAAGTC,-0.0486
25,ACGGTGCC,-0.0427

# Part of the list above, with tabs.
row	Sequence	PBM E-score
7	GAGGGGCA	-0.364
20	GGGATTCA	-0.0483
3	CTGGGGCA	-0.247

# (list continues)

row,Sequence,PBM E-score
1,CGGGACCG,0.0304
2,GAATCACC,0.069
3,GTATCGCA,-0.00484
4,CATGCTAA,0.119
5,GACGCTCC,-0.112
6,ACCCTTTC,-0.129
7,ACAGACGC,-0.0967
8,GCCTCGTA,0.102
9,GAACGTGA,0.0851
10,CACCTGCA,0.0275
11,GTAGCCGA,-0.0434
12,CACGTCTC,-0.0455
13,ATAAACCG,0.00794
14,CTAATGCA,0.153
15,CGTCGGAG,0.00297
16,GGGCGCCC,0.0661
17,ACACACGG,-0.0786
18,GCCTGAAA,0.0559
19,GCGCACCC,-0.0131
20,ATGCTGAG,-0.198
21,CAACGCAG,-0.0715
22,GAATAACC,-0.0686
23,AACCGACC,0.0155
24,AACTTTTA,0.173
25,CCTCGTAC,-0.0257

row,Sequence,PBM E-score
1,ATGAGTAC,0.0206
2,CCTAGGTC,-0.0745
3,GGCCTACC,-0.0038
4,TAACTGGA,-0.0338
5,GCCGTGCA,0.00627
6,CTGACAAG,0.101
7,GGAACCCC,-0.235
8,CTGTCAAG,-0.0861
9,GCTTTACC,0.148
10,CCTCAAAA,-0.149
11,AGGCCAGG,-0.068
12,AAGACGCC,0.0403
13,CTAATATA,0.239
14,ATCAAAAG,0.017
15,ATCCCAAA,-0.0834
16,TCAATCGA,0.131
17,AGACGCCT,-0.1
18,AAAGTAGT,-0.0673
19,CATTAGGG,-0.11
20,GATTACCA,0.179
21,ACGTAGTG,-0.0112
22,CAGAGTGG,-0.121
23,AGAAACAG,-0.0491
24,GCGTCAGA,0.0112
25,GCCGATTA,0.0275

row,Sequence,PBM E-score
1,AACTACTA,0.239
2,ACATCACA,0.0995
3,CCTACTAC,-0.0286
4,CCAGGCCC,0.0233
5,ATTGCCCC,-0.0974
6,GACCCATA,0.0887
7,GATAATGA,0.167
8,AACCGTTA,-0.0839
9,GTGCAATA,0.0215
10,AAATGCGC,0.224
11,GGTCATCA,0.0893
12,ACTCACGC,-0.0934
13,CATCGTAA,-0.0133
14,ACTCTATA,0.0276
15,AGGTGTCC,0.0345
16,AAGAAAGT,0.0333
17,TCCTTTCA,0.0428
18,AGTAAAGC,-0.00649
19,AGGGACCC,-0.141
20,GAGCTACA,-0.226
21,CATATATA,0.164
22,CCTGAGAC,-0.206

# Four entries from above, bar-delimited.
row | Sequence | PBM E-score
15 | AGGTGTCC | 0.0345
16 | AAGAAAGT | 0.0333
17 | TCCTTTCA | 0.0428
18 | AGTAAAGC | -0.00649
